# Values quoted from earlier work in patent US5668182A, “Method of calming or sedating an animal with a hydroxy benzaldehyde compound” (priority 1996, dated 1997).
# System: rats
# Settings: cited from earlier work
structure (smiles),measurement,value
"CN1C(=O)CN=C(c2ccccc2)c2cc(Cl)ccc21 [diazepam, reference compound]",oral LD50,1240 mg/kg
